Some of the results follow.

The results in this text go back to PMC7819943, “Rice protein-binding microarrays: a tool to detect cis-acting elements near promoter regions in rice”.

This assay deals with T1, OsSMF1 (Oryza sativa, UniProt Q6ZLB0 1-436).
T1 sequence: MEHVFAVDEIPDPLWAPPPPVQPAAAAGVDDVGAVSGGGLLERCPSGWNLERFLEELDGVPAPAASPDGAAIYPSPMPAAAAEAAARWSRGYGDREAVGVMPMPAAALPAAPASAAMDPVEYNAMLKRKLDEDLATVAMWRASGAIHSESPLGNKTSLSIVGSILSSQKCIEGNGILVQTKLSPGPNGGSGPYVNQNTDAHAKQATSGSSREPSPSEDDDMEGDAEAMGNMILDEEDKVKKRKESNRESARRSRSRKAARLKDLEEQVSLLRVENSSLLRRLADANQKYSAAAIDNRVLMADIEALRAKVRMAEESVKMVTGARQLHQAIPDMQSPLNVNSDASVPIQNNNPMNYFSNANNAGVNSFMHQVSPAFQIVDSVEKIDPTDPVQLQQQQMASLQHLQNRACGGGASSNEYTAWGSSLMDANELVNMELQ
As to the kind of experiment: protein-binding microarray (RPBM); PBS, 2% BSA, 51.3 ng/ul salmon testes DNA, 50 uM zinc acetate, 200 nM TF, 25 C, 1 h; high values mean tight binding. As to conditions: protein: recombinant; tags: N-terminal polyhistidine and DsRed monomer fusion (pET32a); chain copies: 2; label: CyDye5-dUTP incorporated in the synthesized complementary strand; 3' TTTTT single-stranded linker to array surface; dsDNA, one strand shown. The method in brief:
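Transcription factors were made in E. coli BL21-CodonPlus as N-terminal fusions to a polyhistidine tag and DsRed, then purified on Ni–NTA. After primer extension with Cy5-dUTP and blocking with 2% BSA, a custom Agilent array was exposed for 1 h at 25 °C to 200 nM protein in PBS, 2% BSA, salmon testes DNA and 50 µM zinc acetate. Washed arrays were scanned on an Axon 4000B, and the binding signal is per-feature fluorescence intensity in arbitrary units.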
Consider “TCATCCTGTCATCCCCATGAATGCGGATGTCACCACTCGTCGGAGTCACCTAGTGCAG”, for which the binding signal is 4140 fluorescence intensity (a.u.).
The same measure for “ATGTTGCCTCGCTGTCAAACTGACTGTAATCCAACTCCACCGGAGTCACCTAGTGCAG”: 4096 fluorescence intensity (a.u.); for “ATGCAAGAGCTAGCGCAACCGTGGTGACGCAACCAAGAGACGGAGTCACCTAGTGCAG”: 3960 fluorescence intensity (a.u.).
The same measure for “TTACGTACTTGCACTATCTGTCATCCTGTATCTGGGACCGCGGAGTCACCTAGTGCAG”: 3700 fluorescence intensity (a.u.); for “TTTCCTACCGACCAGACGATGACGGAGAGGGTGACGCAGGCGGAGTCACCTAGTGCAG”: 6220 fluorescence intensity (a.u.).
The figure for “CGACACAGCCCCGACAGGCGAGACACGTAACCATCACGCCCGGAGTCACCTAGTGCAG” is 9260 fluorescence intensity (a.u.); for “GCTTCCGGCCCTGTGTCACGCCGCGCCGTTCCTCGTCGTCCGGAGTCACCTAGTGCAG” it is 3590 fluorescence intensity (a.u.).
In the case of “AACAGGGAATCGAACCCATGATGTCGGGATGCTACGACATCGGAGTCACCTAGTGCAG”, the binding signal is 3380 fluorescence intensity (a.u.).
As for “AGTCGAGAGTGACAGAGCACGTGTACACTTGGACATGGACCGGAGTCACCTAGTGCAG”, the binding signal was 3520 fluorescence intensity (a.u.).
The same measure for “CGTGGGTTTCTCCACACATATTGGTGGCATACGGCATACCCGGAGTCACCTAGTGCAG”: 3500 fluorescence intensity (a.u.); for “CGGATTCTCGTCGGCTTCGGCGACCGGAAGAGGAGAGGAGCGGAGTCACCTAGTGCAG”: 3230 fluorescence intensity (a.u.).
The same measure for “CGTCAGGCTGCTCGCCGCCGGCGCTGACGTCGTTCTACGGCGGAGTCACCTAGTGCAG”: 5960 fluorescence intensity (a.u.); for “TGTCAGTTTTAGCTGAATCATCATGTATGGTTAAAACTATCGGAGTCACCTAGTGCAG”: 4000 fluorescence intensity (a.u.).
The figure for “TAATGATGTTACCACGCAATCTGCGCGAGCCACCATGCTACGGAGTCACCTAGTGCAG” is 3740 fluorescence intensity (a.u.); for “CTGCAATGCATTATATGACAAGCTGCATGATGTGGAAGAACGGAGTCACCTAGTGCAG” it is 3170 fluorescence intensity (a.u.).
As to “CTCCCTCCGCCGCCCCGGTTACGCAACCAAATACCGACGGCGGAGTCACCTAGTGCAG”, the binding signal is 35600 fluorescence intensity (a.u.).
For the sequence “ACGGCGGTGAACACCACGAACAGCTCCGGGCCATCACGGTCGGAGTCACCTAGTGCAG”, the binding signal was 25900 fluorescence intensity (a.u.).
Take “GAACGGAACAGAGTGTGACACGGCATATATGTACTTTCCCCGGAGTCACCTAGTGCAG”: the binding signal was 10500 fluorescence intensity (a.u.).
The same measure for “GCCGTAGCGAGATCTGTAGCAACCAGTGCGCCTTCGCCGTCGGAGTCACCTAGTGCAG”: 3150 fluorescence intensity (a.u.); for “TATGGGAGTTTAGAGACGAATAACTGACGTAATCAAAATCCGGAGTCACCTAGTGCAG”: 6090 fluorescence intensity (a.u.).
For “TCTCTCAAGATAGCTGCCAGCTCACGCCAGCTTACAAGTTCGGAGTCACCTAGTGCAG”, the binding signal is 6540 fluorescence intensity (a.u.).
The figure for “GTACGCCATGCTGCACCTCCTGCACCGCCACATGAAGCACCGGAGTCACCTAGTGCAG” is 3260 fluorescence intensity (a.u.).
The same measure for “ATAATATCACACGTACACTCCCACATATACACTCTCTTTCCGGAGTCACCTAGTGCAG”: 3140 fluorescence intensity (a.u.).
